Experimental data reported in PubChem BioAssay AID540256 (National Center for Advancing Translational Sciences (NCATS), 2011).
About 3,700 (1.2%) of roughly 300,000 compounds were called active. The shares of active, inactive and inconclusive entries below differ from those in the screen. Calls come from the whole dose curve; tested in HEK293 cells. Where the call is inconclusive, the potency comes from a doubtful curve fit.

Assay: qHTS for Inhibitors of binding or entry into cells for Lassa Virus; note: nearly all actives have a fitted effect of over 50% in size
Conditions: Lassa virus pseudotype entry inhibition, cell reporter; activity change, negative = inhibition: at 37.9 µM (top of the series) unless noted
% is set by controls: 0 for no effect and ±100 for the full control effect; potency is the fitted concentration of half-maximal effect.

Row | SMILES | Potency | activity change, negative = inhibition
1 | CCOC(=O)c1c(-c2ccc(C)o2)csc1NC(=O)CN1CCOCC1 | inconclusive: 10 µM [inhibitor, partial curve, poor fit] | –
2 | Cc1cccc(N2CCN(C(=O)Cn3nc(Cc4cccnc4)c4ccccc4c3=O)CC2)c1C | inconclusive: 22.4 µM [inhibitor, single point] | –
3 | COc1cccc(CC2(CO)CCN(Cc3cnc(-c4cccc(C)c4)nc3)CC2)c1 | inconclusive: 15.8 µM [inhibitor, single point] | –
4 | COc1ccc(NC(=O)Cn2c(=O)ccc3cc(S(=O)(=O)N4CCCC4)ccc32)cc1Cl | – | inactive: -25.5% [at 46.1 µM]
5 | O=C(Nc1cccc(Br)c1)c1cc2ccccc2o1 | inconclusive: 0.92 µM [activator, partial curve, poor fit] | –
6 | O=C(OCn1nnc2ccccc2c1=O)c1ccc2ncsc2c1 | inconclusive: 18.3 µM [activator, single point] | –
7 | CCCCC1CN2CCc3c([nH]c4ccccc34)C2(C)C1 (stereo unspecified) | – | inactive: 0.724%
8 | COc1ccc(S(=O)(=O)N(CC(=O)Nc2cccnc2)c2ccc(Cl)cc2)cc1 | inconclusive: 35.5 µM [inhibitor, single point] | –
9 | COc1cc(N)c(Br)cc1C(=O)O | inconclusive: 35.5 µM [activator, single point] | –
10 | CC1CCN(S(=O)(=O)c2cccc(C(=O)N3CCN(c4ccc(F)cc4)CC3)c2)CC1 | inconclusive: 25.1 µM [inhibitor, single point] | –
11 | Cc1nc(C)c(C(=O)NNS(=O)(=O)c2ccc3ccccc3c2)s1 | inconclusive: 11.2 µM [inhibitor, partial curve, poor fit] | –
12 | Brc1ccc2ncnc(NCc3ccccc3)c2c1 | inconclusive: 28.2 µM [inhibitor, single point] | –
13 | CCC(C)(NC=O)C(=O)Nc1c(C)cccc1C (stereo unspecified) | inconclusive: 4.47 µM [inhibitor, single point] | –
14 | COc1cccc(CN(C)C(=O)c2cc(-c3ccc(F)cc3)nc3ccccc23)c1 | inconclusive: 20 µM [inhibitor, partial curve, poor fit] | –
15 | CCOC(=O)C1(Cc2ccc(Cl)cc2)CCN(C(=O)c2cscn2)CC1 | inconclusive: 11.2 µM [inhibitor, partial curve, poor fit] | –
16 | COCc1cc(N2CCOCC2)nc(SCc2ccc(Cl)cc2)n1 | inconclusive: 17.8 µM [inhibitor, single point] | –
17 | COc1ccc(C(=O)N/C(=C/c2ccc(Cl)cc2)C(=O)NCc2ccncc2)cc1 | inconclusive: 35.5 µM [inhibitor, single point] | –
18 | Cc1ccc(-n2c(=O)c3c(C)c(C)sc3n(CC(=O)NCc3ccccc3)c2=O)cc1C | – | inactive: 1.91% [at 46.1 µM]
19 | CC1CCc2c(sc(NC(=O)C3c4ccccc4Oc4ccccc43)c2C#N)C1 (stereo unspecified) | inconclusive: 4.47 µM [inhibitor, partial curve, poor fit] | –
20 | O=C(CN1CCN(c2cnn(-c3ccccc3)c(=O)c2Cl)CC1)NC1CCS(=O)(=O)C1 (stereo unspecified) | inconclusive: 0.891 µM [inhibitor, single point] | –
21 | O=c1cc(O)cc(/C=C/c2ccc(O)c(O)c2)o1 | inconclusive: 0.004 µM [inhibitor, full curve, poor fit] | –

Row | SMILES | Potency | activity change, negative = inhibition
22 | Cc1ccc(CNC(=O)COc2ccc(C(=O)c3ccc(F)cc3)cc2)cc1 | inconclusive: 8.91 µM [inhibitor, partial curve] | –
23 | COc1ccc(OCC(O)CNS(=O)(=O)c2cccc(Cl)c2)cc1 (stereo unspecified) | inconclusive: 7.08 µM [inhibitor, full curve, poor fit] | –
24 | CN1CCC(N(C)C(=O)CCc2nc3ccccc3c(=O)[nH]2)CC1 | inconclusive: 0.0041 µM [activator, full curve, poor fit] | –
25 | COc1ccc2cc3c(N)nn(C(=O)c4ccccc4[N+](=O)[O-])c3nc2c1 | inconclusive: 20.6 µM [inhibitor, partial curve, poor fit] | –
26 | Cc1ccc(Cl)cc1N1CCN(C(=O)Cn2cnc3sc(C)c(S(=O)(=O)N4CCC(C)CC4)c3c2=O)CC1 | – | inactive: 11.2% [at 46.1 µM]
27 | O=C(O)c1ccc2c(c1)OCCO2 | inconclusive: 17.8 µM [inhibitor, partial curve, poor fit] | –
28 | Cc1ccc2c(c1)c1c(n2CC(O)Cn2c(C)nc3ccccc32)/C(=N\O)CCC1 (stereo unspecified) | inconclusive: 22.4 µM [inhibitor, single point] | –
29 | O=C(Cc1cccc2ccccc12)Nc1ccc(-c2cc3ccccc3oc2=O)cc1 | inconclusive: 7.94 µM [inhibitor, partial curve, poor fit] | –
30 | Cc1cccc(C2=NC(C(F)(F)F)(C(F)(F)F)c3c(n(-c4ccc(F)cc4)c(=O)[nH]c3=O)N2)c1 | inconclusive: 22.4 µM [inhibitor, single point] | –
31 | Cc1nc(SCC(=O)c2c[nH]c3ccccc23)n[nH]1 | inconclusive: 0.411 µM [activator, partial curve, poor fit] | –
32 | CC(=O)Nc1cccc(OCC(=O)Nc2cccc(S(=O)(=O)N3CCCC3)c2)c1 | – | inactive: 3.89%
33 | CN1CCC(N(C)CC(O)c2ccccc2)CC1 (stereo unspecified) | inconclusive: 0.891 µM [inhibitor, partial curve, poor fit] | –
34 | CCOC(=O)C1CCN(C(=O)c2cc(OCC)c(OCC)c(OCC)c2)CC1 | – | inactive: -9.39%
35 | Cc1cc(NC(=O)COC(=O)C(Nc2ccc(C(F)(F)F)cc2Cl)C(C)C)no1 (stereo unspecified) | inconclusive: 32.6 µM [inhibitor, single point] | –
36 | COC(=O)c1c(C)oc2ccc(N(C(=O)Oc3ccccc3)S(=O)(=O)c3ccccc3)cc12 | inconclusive: 10 µM [inhibitor, partial curve, poor fit] | –
37 | CCN(C(=S)Nc1cccnc1)c1ccccc1 | – | inactive: 10.7%
38 | COC(=O)NCC(c1cccnc1)N1CCN(c2ccc(F)cc2)CC1 (stereo unspecified) | inconclusive: 14.1 µM [inhibitor, single point] | –
39 | Cc1ccc(-n2ncc3c(NCCC4=CCCCC4)ncnc32)cc1 | inconclusive: 35.5 µM [activator, single point] | –
40 | O=C(Nc1cccc(S(=O)(=O)N2CCCCC2)c1)c1ccc(S(=O)(=O)C(F)F)cc1 | inconclusive: 11.2 µM [inhibitor, partial curve, poor fit] | –
41 | O=C(NCCOc1nc(N2CCOCC2)nc(N2CCOCC2)n1)Nc1ccccc1 | inconclusive: 31.6 µM [activator, single point] | –
42 | Cc1ccc(NC(=S)N(Cc2cccs2)Cc2cc3cccc(C)c3[nH]c2=O)cc1 | inconclusive: 35.5 µM [inhibitor, single point] | –

3 entries picked at random from the list so far, as already listed:
Row | SMILES | Potency | activity change, negative = inhibition
35 | Cc1cc(NC(=O)COC(=O)C(Nc2ccc(C(F)(F)F)cc2Cl)C(C)C)no1 (stereo unspecified) | inconclusive: 32.6 µM [inhibitor, single point] | –
38 | COC(=O)NCC(c1cccnc1)N1CCN(c2ccc(F)cc2)CC1 (stereo unspecified) | inconclusive: 14.1 µM [inhibitor, single point] | –
29 | O=C(Cc1cccc2ccccc12)Nc1ccc(-c2cc3ccccc3oc2=O)cc1 | inconclusive: 7.94 µM [inhibitor, partial curve, poor fit] | –

Later entries.

Row | SMILES | Potency | activity change, negative = inhibition
43 | CCCN(C(=O)CSCc1ccccc1C)c1c(N)n(Cc2ccccc2)c(=O)[nH]c1=O | inconclusive: 0.112 µM [inhibitor, full curve, poor fit] | –
44 | CCCCCN=C(C)c1c(O)c2ccccc2oc1=O | – | inactive: -18.4%
45 | O=C1c2ccccc2C(=O)N1CCOCCN1C(=O)c2ccccc2C1=O | – | inactive: -16%
46 | O=C(COCC(=O)N/N=C/c1ccccc1F)N/N=C/c1ccccc1F | inconclusive: 0.112 µM [inhibitor, full curve, poor fit] | –
47 | c1ccc(CCc2nn3c(Cc4ccccc4)nnc3s2)cc1 | inconclusive: 7.3 µM [inhibitor, partial curve, poor fit] | –
48 | Cc1ccc(N2C(=O)NC(=O)/C(=C\c3cc(C)n(-c4sc5c(c4C#N)CCCC5)c3C)C2=O)cc1 | inconclusive: 7.94 µM [inhibitor, partial curve, poor fit] | –
49 | COc1ccc(C(=O)Nc2cc3c4c(c2)C(C)C(=O)N4CCC3)c(OC)c1 (stereo unspecified) | inconclusive: 35.5 µM [inhibitor, single point] | –
50 | CC1(C)Cc2c(sc(NC(=O)COc3ccc(Cl)cc3)c2C(N)=O)C(C)(C)N1 | inconclusive: 1.41 µM [inhibitor, partial curve, poor fit] | –
51 | COCCn1c(=NC(=O)c2ccc3c(c2)OCCO3)sc2cc(C(=O)OC)ccc21 | inconclusive: 14.1 µM [activator, single point] | –
52 | O=C(C1CCN(S(=O)(=O)N2CCOCC2)CC1)N1CCN(Cc2ccc3c(c2)OCO3)CC1 | inconclusive: 12.6 µM [inhibitor, partial curve, poor fit] | –
53 | CCC(C)NS(=O)(=O)c1ccc(NC(=O)C(Sc2ccccc2)c2ccccc2)cc1 (stereo unspecified) | active: 12.6 µM | –
54 | Cn1c(SCC(=O)Nc2nccs2)nnc1-c1ccncc1 | – | inactive: 25.2%
55 | Cc1ccc(Cl)cc1NC(=O)Cn1c(=O)oc2cc(S(=O)(=O)N3CCCC3)ccc21 | inconclusive: 1.12 µM [inhibitor, full curve, poor fit] | –
56 | Oc1c(C(c2ccccc2F)N2CCN(Cc3ccccc3)CC2)sc2nc(-c3ccco3)nn12 (stereo unspecified) | – | inactive: 1.35% [at 46.1 µM]
57 | COc1ccc(-n2c(Cc3cccs3)nnc2SCC(=O)Nc2ccc3c(c2)OCCO3)cc1 | inconclusive: 14.6 µM [inhibitor, partial curve, poor fit] | –
58 | NC(=O)c1ccsc1NC(=O)COC(=O)Cc1n[nH]c(=O)c2ccccc12 | inconclusive: 0.562 µM [inhibitor, partial curve, poor fit] | –
59 | CN(CC(=O)Nc1ccccc1C(F)(F)F)C(=O)c1ccc(N2C(=O)CCC2=O)cc1 | – | inactive: -2.14%
60 | CC(C)N1CCC(N2CCN(Cc3ccc(-c4ccc(Cl)cc4)o3)CC2CCO)CC1 (stereo unspecified) | inconclusive: 31.6 µM [inhibitor, single point] | –
61 | COc1ccccc1N1CCN(S(=O)(=O)c2c(C)sc3ncn(CC(=O)N(C)c4ccc(Cl)cc4)c(=O)c23)CC1 | inconclusive: 8.91 µM [inhibitor, single point] | –
